# The other results are listed elsewhere or left out.
# Amino acid sequences for entries named in this document (tags omitted). A change or cut given only in a name is not applied to a line headed by its entry.
# UniProt A6NDG6: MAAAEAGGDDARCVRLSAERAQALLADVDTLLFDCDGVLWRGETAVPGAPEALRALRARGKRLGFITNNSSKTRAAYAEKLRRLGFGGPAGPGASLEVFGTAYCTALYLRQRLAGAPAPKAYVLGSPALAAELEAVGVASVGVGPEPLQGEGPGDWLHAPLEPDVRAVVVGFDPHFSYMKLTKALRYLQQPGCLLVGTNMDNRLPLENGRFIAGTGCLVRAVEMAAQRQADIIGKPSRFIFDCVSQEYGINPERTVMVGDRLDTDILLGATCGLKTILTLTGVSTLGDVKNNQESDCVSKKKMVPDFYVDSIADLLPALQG
# UniProt Q9NRX4: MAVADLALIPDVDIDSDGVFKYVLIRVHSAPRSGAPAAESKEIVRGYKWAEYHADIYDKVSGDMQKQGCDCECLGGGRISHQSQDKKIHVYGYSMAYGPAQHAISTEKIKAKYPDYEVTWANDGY
# UniProt Q96HS1, whole entry, looked up: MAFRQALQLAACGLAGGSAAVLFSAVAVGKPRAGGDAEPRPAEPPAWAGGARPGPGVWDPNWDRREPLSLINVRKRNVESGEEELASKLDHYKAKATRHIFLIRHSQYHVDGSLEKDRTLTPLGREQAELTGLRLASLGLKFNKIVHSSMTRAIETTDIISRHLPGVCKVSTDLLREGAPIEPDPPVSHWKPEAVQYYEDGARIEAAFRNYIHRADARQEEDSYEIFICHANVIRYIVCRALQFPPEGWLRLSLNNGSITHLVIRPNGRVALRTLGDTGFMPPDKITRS
# UniProt P52209: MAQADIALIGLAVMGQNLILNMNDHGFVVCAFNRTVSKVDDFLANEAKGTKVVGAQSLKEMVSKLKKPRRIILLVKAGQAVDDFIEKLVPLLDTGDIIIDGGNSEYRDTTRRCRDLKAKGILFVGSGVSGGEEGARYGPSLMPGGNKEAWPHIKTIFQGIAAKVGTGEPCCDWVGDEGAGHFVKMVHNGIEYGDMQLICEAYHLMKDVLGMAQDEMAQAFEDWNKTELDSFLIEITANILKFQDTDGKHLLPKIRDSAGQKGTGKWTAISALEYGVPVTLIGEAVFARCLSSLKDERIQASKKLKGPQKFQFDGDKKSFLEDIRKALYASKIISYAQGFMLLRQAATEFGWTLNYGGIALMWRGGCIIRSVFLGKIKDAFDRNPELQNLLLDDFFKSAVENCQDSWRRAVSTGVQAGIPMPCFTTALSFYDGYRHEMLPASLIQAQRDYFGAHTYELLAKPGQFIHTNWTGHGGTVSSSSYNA
# UniProt P42356, whole entry, looked up: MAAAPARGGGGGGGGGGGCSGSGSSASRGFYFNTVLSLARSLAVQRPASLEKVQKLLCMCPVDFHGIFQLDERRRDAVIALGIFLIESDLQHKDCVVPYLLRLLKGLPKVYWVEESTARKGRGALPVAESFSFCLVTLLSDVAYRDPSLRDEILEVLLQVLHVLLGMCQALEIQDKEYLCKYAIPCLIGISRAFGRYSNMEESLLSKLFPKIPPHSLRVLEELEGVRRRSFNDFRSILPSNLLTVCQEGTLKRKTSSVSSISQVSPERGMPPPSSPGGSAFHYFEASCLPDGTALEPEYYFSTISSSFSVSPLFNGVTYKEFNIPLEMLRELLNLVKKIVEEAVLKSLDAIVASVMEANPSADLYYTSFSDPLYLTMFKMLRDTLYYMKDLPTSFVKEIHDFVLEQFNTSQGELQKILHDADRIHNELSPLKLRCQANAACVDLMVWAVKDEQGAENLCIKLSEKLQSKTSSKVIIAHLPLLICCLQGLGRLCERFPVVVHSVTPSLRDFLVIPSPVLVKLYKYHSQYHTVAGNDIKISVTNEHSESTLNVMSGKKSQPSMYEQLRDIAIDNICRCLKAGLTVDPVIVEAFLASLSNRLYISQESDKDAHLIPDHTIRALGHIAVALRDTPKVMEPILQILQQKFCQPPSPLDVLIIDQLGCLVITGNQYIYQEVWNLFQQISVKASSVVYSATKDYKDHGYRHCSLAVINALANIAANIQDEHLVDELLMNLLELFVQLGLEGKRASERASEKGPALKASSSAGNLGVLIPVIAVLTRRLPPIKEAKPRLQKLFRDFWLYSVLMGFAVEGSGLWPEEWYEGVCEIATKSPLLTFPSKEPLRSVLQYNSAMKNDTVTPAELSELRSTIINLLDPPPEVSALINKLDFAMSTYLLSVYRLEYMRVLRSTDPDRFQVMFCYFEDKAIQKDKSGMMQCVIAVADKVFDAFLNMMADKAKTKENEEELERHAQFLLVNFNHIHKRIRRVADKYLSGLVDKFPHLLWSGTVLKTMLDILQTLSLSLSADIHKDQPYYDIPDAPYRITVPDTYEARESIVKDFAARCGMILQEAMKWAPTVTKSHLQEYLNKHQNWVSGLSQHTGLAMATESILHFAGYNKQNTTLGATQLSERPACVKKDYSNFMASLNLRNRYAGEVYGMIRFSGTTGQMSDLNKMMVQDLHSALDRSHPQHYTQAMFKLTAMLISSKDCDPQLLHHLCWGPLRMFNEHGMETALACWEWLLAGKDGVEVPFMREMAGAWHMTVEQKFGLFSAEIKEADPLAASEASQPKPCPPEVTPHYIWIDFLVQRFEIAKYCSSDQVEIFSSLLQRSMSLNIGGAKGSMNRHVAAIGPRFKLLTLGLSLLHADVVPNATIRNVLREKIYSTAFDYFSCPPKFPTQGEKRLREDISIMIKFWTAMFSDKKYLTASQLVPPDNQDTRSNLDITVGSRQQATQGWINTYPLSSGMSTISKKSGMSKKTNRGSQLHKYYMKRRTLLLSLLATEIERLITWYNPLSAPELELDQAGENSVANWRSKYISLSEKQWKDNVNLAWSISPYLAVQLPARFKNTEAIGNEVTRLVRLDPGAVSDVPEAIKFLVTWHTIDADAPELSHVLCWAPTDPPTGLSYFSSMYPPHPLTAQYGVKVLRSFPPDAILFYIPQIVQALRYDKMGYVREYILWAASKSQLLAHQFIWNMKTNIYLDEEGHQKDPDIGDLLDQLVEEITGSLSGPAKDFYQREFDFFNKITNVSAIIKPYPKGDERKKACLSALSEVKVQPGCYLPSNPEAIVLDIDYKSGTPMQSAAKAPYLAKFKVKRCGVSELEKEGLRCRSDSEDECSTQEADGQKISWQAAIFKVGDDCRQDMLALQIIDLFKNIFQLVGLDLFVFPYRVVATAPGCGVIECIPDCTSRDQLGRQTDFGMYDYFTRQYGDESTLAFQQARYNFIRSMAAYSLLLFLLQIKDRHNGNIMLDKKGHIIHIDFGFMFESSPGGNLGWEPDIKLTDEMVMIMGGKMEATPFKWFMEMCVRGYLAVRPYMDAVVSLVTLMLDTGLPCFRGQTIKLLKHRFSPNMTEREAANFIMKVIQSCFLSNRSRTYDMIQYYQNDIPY
# UniProt O94880: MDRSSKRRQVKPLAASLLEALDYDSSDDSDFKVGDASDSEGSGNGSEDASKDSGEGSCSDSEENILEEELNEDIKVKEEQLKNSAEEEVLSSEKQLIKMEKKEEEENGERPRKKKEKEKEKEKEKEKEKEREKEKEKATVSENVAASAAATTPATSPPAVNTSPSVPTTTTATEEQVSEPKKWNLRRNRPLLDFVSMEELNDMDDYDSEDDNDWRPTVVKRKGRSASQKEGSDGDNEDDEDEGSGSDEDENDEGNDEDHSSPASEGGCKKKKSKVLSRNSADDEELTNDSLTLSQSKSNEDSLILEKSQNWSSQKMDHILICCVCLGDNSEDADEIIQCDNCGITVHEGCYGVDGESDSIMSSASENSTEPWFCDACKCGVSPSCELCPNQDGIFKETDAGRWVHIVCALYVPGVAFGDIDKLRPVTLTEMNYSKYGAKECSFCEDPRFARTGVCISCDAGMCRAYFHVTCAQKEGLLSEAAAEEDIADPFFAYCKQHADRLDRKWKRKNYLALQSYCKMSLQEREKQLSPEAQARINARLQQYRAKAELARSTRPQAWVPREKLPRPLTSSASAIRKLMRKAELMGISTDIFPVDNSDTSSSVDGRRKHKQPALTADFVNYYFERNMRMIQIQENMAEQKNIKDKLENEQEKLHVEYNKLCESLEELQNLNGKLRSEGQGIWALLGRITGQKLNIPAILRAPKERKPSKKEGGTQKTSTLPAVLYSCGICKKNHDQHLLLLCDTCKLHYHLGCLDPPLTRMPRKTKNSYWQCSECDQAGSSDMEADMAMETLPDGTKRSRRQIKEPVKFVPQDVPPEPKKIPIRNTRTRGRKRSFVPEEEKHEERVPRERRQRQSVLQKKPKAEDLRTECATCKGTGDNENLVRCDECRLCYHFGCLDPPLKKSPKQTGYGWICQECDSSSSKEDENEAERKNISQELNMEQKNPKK
# UniProt Q9P1Y6: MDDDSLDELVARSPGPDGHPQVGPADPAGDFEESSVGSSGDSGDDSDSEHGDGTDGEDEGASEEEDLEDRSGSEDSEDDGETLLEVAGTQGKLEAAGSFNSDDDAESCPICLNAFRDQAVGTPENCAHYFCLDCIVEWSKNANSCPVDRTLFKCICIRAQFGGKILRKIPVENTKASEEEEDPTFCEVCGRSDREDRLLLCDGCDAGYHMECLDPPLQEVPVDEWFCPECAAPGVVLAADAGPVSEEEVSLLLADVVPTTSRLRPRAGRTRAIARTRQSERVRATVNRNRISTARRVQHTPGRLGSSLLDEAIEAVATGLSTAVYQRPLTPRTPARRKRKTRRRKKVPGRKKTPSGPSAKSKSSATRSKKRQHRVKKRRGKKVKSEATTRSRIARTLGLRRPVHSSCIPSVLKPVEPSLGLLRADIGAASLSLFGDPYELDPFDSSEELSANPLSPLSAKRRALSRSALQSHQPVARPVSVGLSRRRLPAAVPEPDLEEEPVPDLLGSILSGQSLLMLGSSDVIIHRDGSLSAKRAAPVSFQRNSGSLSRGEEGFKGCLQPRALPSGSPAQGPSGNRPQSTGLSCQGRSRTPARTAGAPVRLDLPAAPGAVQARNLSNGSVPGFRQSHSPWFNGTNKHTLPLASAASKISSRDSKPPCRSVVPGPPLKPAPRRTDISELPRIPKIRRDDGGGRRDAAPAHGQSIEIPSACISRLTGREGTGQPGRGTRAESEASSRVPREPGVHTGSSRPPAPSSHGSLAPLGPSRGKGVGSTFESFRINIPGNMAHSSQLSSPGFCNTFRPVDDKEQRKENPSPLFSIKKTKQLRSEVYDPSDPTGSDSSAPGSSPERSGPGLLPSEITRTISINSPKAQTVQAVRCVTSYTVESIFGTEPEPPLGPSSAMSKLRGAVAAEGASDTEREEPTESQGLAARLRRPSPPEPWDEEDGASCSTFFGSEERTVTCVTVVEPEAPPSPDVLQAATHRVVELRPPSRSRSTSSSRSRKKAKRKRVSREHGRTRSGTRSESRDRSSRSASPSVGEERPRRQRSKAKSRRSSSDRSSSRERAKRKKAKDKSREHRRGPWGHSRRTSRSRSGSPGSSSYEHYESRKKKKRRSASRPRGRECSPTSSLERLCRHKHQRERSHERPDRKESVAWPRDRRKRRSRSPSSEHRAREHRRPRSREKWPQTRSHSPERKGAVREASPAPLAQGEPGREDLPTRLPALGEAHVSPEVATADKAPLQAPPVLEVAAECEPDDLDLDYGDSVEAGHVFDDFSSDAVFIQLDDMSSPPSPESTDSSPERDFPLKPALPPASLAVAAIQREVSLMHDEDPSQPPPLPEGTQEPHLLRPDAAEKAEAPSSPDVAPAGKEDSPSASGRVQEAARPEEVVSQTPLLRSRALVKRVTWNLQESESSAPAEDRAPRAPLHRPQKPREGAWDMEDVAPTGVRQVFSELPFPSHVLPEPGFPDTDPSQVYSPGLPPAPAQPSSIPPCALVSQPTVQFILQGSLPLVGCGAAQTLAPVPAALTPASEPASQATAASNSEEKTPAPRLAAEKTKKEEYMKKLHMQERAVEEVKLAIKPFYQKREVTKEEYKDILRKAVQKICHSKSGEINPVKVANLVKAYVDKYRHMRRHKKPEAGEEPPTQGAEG
# UniProt Q7RTV0, whole entry, looked up: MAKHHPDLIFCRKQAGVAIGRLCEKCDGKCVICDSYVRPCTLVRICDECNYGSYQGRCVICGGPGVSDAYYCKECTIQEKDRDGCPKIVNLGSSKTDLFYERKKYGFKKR
# UniProt Q8IWS0: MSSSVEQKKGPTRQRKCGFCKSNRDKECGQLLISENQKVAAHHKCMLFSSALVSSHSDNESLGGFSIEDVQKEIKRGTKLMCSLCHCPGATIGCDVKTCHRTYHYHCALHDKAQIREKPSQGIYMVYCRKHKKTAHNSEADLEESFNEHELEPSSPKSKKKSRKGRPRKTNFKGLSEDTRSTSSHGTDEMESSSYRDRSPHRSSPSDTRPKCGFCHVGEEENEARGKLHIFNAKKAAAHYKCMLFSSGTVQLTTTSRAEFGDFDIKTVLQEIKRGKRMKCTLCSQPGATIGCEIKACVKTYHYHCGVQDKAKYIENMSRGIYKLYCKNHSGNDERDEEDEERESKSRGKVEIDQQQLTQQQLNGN
# Compound: Cc1cc(ccc1-c1ccccc1)C(=O)N1CCCN(CC1)C(=O)CCl [compound 10]
# Test: probe-labelled cysteine peptide fold change vs DMSO (competition) (log2 fold change); higher = less target engagement (more negative = stronger competition)
# Conditions: 10 µM; THP-1; incubation time: 4 h
# 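Note: competitive profiling in live THP-1 cells: cysteine peptides tagged with an iodoacetamide desthiobiotin (IA-DTB) probe, intensity after compound treatment relative to DMSO-treated cells.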
row,Target,probe-labelled cysteine peptide fold change
1,PGP_A6NDG6_217_FIAGTGCLVR (UniProt A6NDG6),0.0649
2,PFKP_Q01813_718_FTTDDSICVLGISKR (UniProt Q01813),0.094
3,PECAM1_P16284_476+481_DNPTEDVEYQCVADNCHSHAK (UniProt P16284),-0.179
4,PFKFB3_Q16875_102_KQCALAALR (UniProt Q16875),-0.00114
5,PHPT1_Q9NRX4_69+71_QGCDCECLGGGR (UniProt Q9NRX4),-0.0253
6,PGAM5_Q96HS1_229_ADARQEEDSYEIFICHANVIR (UniProt Q96HS1),-0.217
7,PGD_P52209_170+171_VGTGEPCCDWVGDEGAGHFVK (UniProt P52209),-0.303
8,PHIP_Q8WWQ0_79_HLAPDHLLQICHR (UniProt Q8WWQ0),0.286
9,PFKFB3_Q16875_440_VESIYLNVESVCTHR (UniProt Q16875),0.309
10,PGD_P52209_402_SAVENCQDSWRR (UniProt P52209),-0.136
11,PI4KA_P42356_1131_QNTTLGATQLSERPACVK (UniProt P42356),-0.134
12,PHF14_O94880-2_607_LCYHFGCLDPPLK (UniProt O94880),0.0735
13,PI4KA_P42356_1774_VQPGCYLPSNPEAIVLDIDYK (UniProt P42356),-0.223
14,PGGT1B_P53609_327+338_WPDSHPDALHAYFGICGLSLMEESGICK (UniProt P53609),-0.0647
15,PEX6_Q13608_474_GPPGCGK (UniProt Q13608),0.0332
16,PGM1_P36871_101_LVIGQNGILSTPAVSCIIR (UniProt P36871),-0.387
17,PGD_P52209_422_AVSTGVQAGIPMPCFTTALSFYDGYR (UniProt P52209),0.251
18,PGAM5_Q96HS1_229_QEEDSYEIFICHANVIR (UniProt Q96HS1),0.109
19,PHIP_Q8WWQ0_522_CSPDGQHFACTDSHGHLLIFGFGSSSK (UniProt Q8WWQ0),0.205
20,PGK1_P00558_50_FCLDNGAK (UniProt P00558),0.0573
21,PHIP_Q8WWQ0_1165_SLIYKPLDGEWGTNPRDEECER (UniProt Q8WWQ0),0.0409
22,PHRF1_Q9P1Y6_962_TVTCVTVVEPEAPPSPDVLQAATHR (UniProt Q9P1Y6),-0.507

# Same assay, conditions: 50 µM; THP-1; incubation time: 4 h
row,Target,probe-labelled cysteine peptide fold change
1,PHKG2_P15735_353_HLIDNCAFR (UniProt P15735),0.16
2,PHF5A_Q7RTV0_11_HHPDLIFCR (UniProt Q7RTV0),-0.0226
3,PEX5_P50542_566_YNLGISCINLGAHR (UniProt P50542),0.214
4,PIK3C3_Q8NEB9_476_EVPDGENLEQDLCTFLISR (UniProt Q8NEB9),0.0723
5,PEPD_P12955_467_IEEDVVVTDSGIELLTCVPR (UniProt P12955),0.132
6,PHIP_Q8WWQ0_28_FLEDGPCQQAAQVLIR (UniProt Q8WWQ0),0.146
7,PHF6_Q8IWS0_20_KCGFCK (UniProt Q8IWS0),-0.884
8,PHF12_Q96QT6_613_TENATGPSSCPQR (UniProt Q96QT6),-0.482
9,PFKP_Q01813_718_KFTTDDSICVLGISK (UniProt Q01813),-0.172
10,PGD_P52209_199_MVHNGIEYGDMQLICEAYHLMK (UniProt P52209),0.029
11,PES1_O00541_361_SLCIGATYDVTDSR (UniProt O00541),-0.407
12,PELP1_Q8IZL8_71_SAPHLPGLMCLLR (UniProt Q8IZL8),-0.883
13,PELP1_Q8IZL8_522_KGDSNANSDVCAAALR (UniProt Q8IZL8),0.00462
14,PHF6_Q8IWS0_128_EKPSQGIYMVYCR (UniProt Q8IWS0),-0.0252
15,PGM2L1_Q6PCE3_125_GQVTSSCSSQR (UniProt Q6PCE3),-0.0814
16,PGP_A6NDG6_193_YLQQPGCLLVGTNMDNRLPLENGR (UniProt A6NDG6),-0.192
17,PGM3_O95394_168_LSQSVIDGVTVLGGQFHDYGLLTTPQLHYMVYCR (UniProt O95394),0.146
18,PGP_A6NDG6_217_FIAGTGCLVR (UniProt A6NDG6),0.0408
19,PFKP_Q01813_718_FTTDDSICVLGISKR (UniProt Q01813),-0.636
20,PECAM1_P16284_476+481_DNPTEDVEYQCVADNCHSHAK (UniProt P16284),-0.426

row,Target,probe-labelled cysteine peptide fold change
1,PFKFB3_Q16875_102_KQCALAALR (UniProt Q16875),-0.635
2,PHPT1_Q9NRX4_69+71_QGCDCECLGGGR (UniProt Q9NRX4),-0.281
3,PGAM5_Q96HS1_229_ADARQEEDSYEIFICHANVIR (UniProt Q96HS1),-0.374
4,PGD_P52209_170+171_VGTGEPCCDWVGDEGAGHFVK (UniProt P52209),-0.985
5,PHIP_Q8WWQ0_79_HLAPDHLLQICHR (UniProt Q8WWQ0),0.187
6,PFKFB3_Q16875_440_VESIYLNVESVCTHR (UniProt Q16875),0.312
7,PGD_P52209_402_SAVENCQDSWRR (UniProt P52209),-0.26
8,PI4KA_P42356_1131_QNTTLGATQLSERPACVK (UniProt P42356),-0.0751
9,PHF14_O94880-2_607_LCYHFGCLDPPLK (UniProt O94880),0.0954
10,PI4KA_P42356_1774_VQPGCYLPSNPEAIVLDIDYK (UniProt P42356),-0.348
11,PGGT1B_P53609_327+338_WPDSHPDALHAYFGICGLSLMEESGICK (UniProt P53609),-0.014
12,PEX6_Q13608_474_GPPGCGK (UniProt Q13608),-0.0326
13,PGM1_P36871_101_LVIGQNGILSTPAVSCIIR (UniProt P36871),0.0617
14,PGD_P52209_422_AVSTGVQAGIPMPCFTTALSFYDGYR (UniProt P52209),0.148
15,PGAM5_Q96HS1_229_QEEDSYEIFICHANVIR (UniProt Q96HS1),0.432
16,PHIP_Q8WWQ0_522_CSPDGQHFACTDSHGHLLIFGFGSSSK (UniProt Q8WWQ0),0.11
17,PGK1_P00558_50_FCLDNGAK (UniProt P00558),-0.0506
18,PHIP_Q8WWQ0_1165_SLIYKPLDGEWGTNPRDEECER (UniProt Q8WWQ0),-0.0627
19,PHRF1_Q9P1Y6_962_TVTCVTVVEPEAPPSPDVLQAATHR (UniProt Q9P1Y6),-0.54
